Assay results: publication PMC4550094 (Journal of biomolecular screening, 2013)

System: HepG2 cells
Assay: CellTiter-Glo cell viability assay
Type: cell-based, Human
Conditions: for Cell Viability Efficacy (maximum inhibition of cell viability): HepG2, 24 h treatment, mean ± SD of three experiments

With `O=C(CCCN1CCC2(CC1)C(=O)NCN2c1ccccc1)c1ccc(F)cc1` [Spiperone] the “Cell Viability Efficacy (maximum inhibition of cell viability)” value was 83.5±7.3%, the “Cell Viability Efficacy (maximum inhibition of cell viability)” value (listed as spiperone) was 83% and the IC50 (Homo sapiens, HepG2, 24 h, read-out: Cell Viability IC50) was 8.9 ± 12.5 µM.
